Measurements reported in PubChem BioAssay AID686938 (Drosophila RNAi Screening Center, 2013).
The screen tested about 23,000 reagents; this is a random part of those with a known target gene and a result. Of all reagents, 75 (0.33%) were called active. 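Raw plate signals without normalisation; calls rest on plate z-scores that were not deposited; ratio present for only 364 wells.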 The numbers tell different reagents against one gene apart. Names joined by + are all predicted targets of the reagent. Not stated in the record: the dose of the treatment.

- Screen: 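Knock-downs reducing store-operated calcium influx in Drosophila cells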 (primary screen)
- System: Drosophila S2R+ cells
- Reagents: long dsRNA against Drosophila genes, about 0.25 µg dsRNA per well, roughly 10,000 cells
- Timing: 5 days of knock-down before the calcium assay
- Treatment: thapsigargin (SERCA pump blocker) to empty calcium stores; entry signal taken 4 min after adding it
- Measurement: 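Duplicate raw fluo-4 intensities per well from a plate reader, at rest and four minutes after thapsigargin emptied calcium stores; entry-to-rest ratio filled for only some wells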
- Scale: calcium entry signal: higher = stronger calcium signal after store depletion; entry to resting ratio: higher = more calcium entry relative to resting level; resting calcium signal: higher = higher resting calcium signal
- Call rule: 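Called when the plate z-score of the entry-to-rest ratio, mean of duplicates, falls below −3; wells with low overall dye signal (Fmax z below −2) or more than five off-targets excluded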
- Meaning of the calls: active = strongly reduced calcium entry; inactive = no strong reduction

gene knocked down | reagent | calcium entry signal, replicate 1 (fluorescence units) | calcium entry signal, replicate 2 (fluorescence units) | entry to resting ratio | resting calcium signal, replicate 1 (fluorescence units) | resting calcium signal, replicate 2 (fluorescence units) | activity call
Hcf (Host cell factor) | 1 | 2.79e7 | 3.70e7 | – | 1.59e7 | 1.77e7 | inactive
Mcm7 (Minichromosome maintenance 7) | 1 | 3.08e7 | 2.26e7 | – | 2.57e7 | 1.28e7 | inactive
CG15721 | 1 | 3.65e7 | 3.62e7 | – | 1.79e7 | 1.77e7 | inactive
Muc11A (Mucin 11A) | 1 | 3.92e7 | 3.94e7 | – | 1.84e7 | 2.30e7 | inactive
CG1233 | 1 | 4.62e7 | 3.88e7 | – | 2.04e7 | 1.97e7 | inactive
CG8939 | 1 | 3.09e7 | 3.22e7 | – | 1.56e7 | 1.65e7 | inactive
CG33267 | 1 | 3.60e7 | 5.29e7 | – | 1.79e7 | 2.31e7 | inactive
dco (discs overgrown) | 1 | 3.88e7 | 3.66e7 | – | 1.84e7 | 1.94e7 | inactive
CG8813 | 1 | 3.68e7 | – | – | 2.34e7 | – | inactive
CG6813 | 1 | 3.72e7 | 3.86e7 | – | 1.82e7 | 1.98e7 | inactive
CG32719 | 1 | 2.79e7 | 3.78e7 | – | 1.19e7 | 1.64e7 | inactive
asrij | 1 | 4.19e7 | 4.11e7 | – | 2.12e7 | 1.84e7 | inactive
CG12493 | 1 | 3.28e7 | 5.91e7 | – | 1.50e7 | 2.52e7 | inactive
Ance-4 | 1 | 3.91e7 | 4.08e7 | – | 1.68e7 | 1.90e7 | inactive
CG1889 + CG43386 | 1 | 3.23e7 | 5.22e7 | – | 1.74e7 | 2.29e7 | inactive
CG8661 | 1 | 3.76e7 | 3.51e7 | – | 2.02e7 | 1.52e7 | inactive
CG14232 | 1 | 2.78e7 | 2.44e7 | – | 1.70e7 | 1.19e7 | inactive
asRNA:CR33945 (antisense RNA:CR33945) | 1 | 4.17e7 | 4.32e7 | – | 1.99e7 | 1.64e7 | inactive
Dark (Death-associated APAF1-related killer) | 1 | 4.14e7 | 3.55e7 | – | 1.95e7 | 1.64e7 | inactive
Pdfr (Pigment-dispersing factor receptor) | 1 | 2.61e7 | 3.19e7 | 1.8 | 1.41e7 | 1.48e7 | inactive
Ing5 (Inhibitor of growth family member 5) | 1 | 3.90e7 | – | – | 1.86e7 | – | inactive
CG12590 | 1 | 5.23e7 | 3.51e7 | – | 2.16e7 | 1.54e7 | inactive
CG4951 | 1 | 2.76e7 | 4.11e7 | – | 1.35e7 | 1.78e7 | inactive
pHCl-2 (pH-sensitive chloride channel 2) | 1 | 3.45e7 | 5.01e7 | – | 1.80e7 | 2.19e7 | inactive
Hand | 1 | 3.88e7 | 4.23e7 | – | 1.75e7 | 1.78e7 | inactive
Mlc2 (Myosin light chain 2) | 1 | 5.26e7 | 5.91e7 | – | 2.33e7 | 2.66e7 | inactive
CG13026 | 1 | 3.91e7 | 5.49e7 | – | 1.77e7 | 1.95e7 | inactive
alpha-Est5 (alpha-Esterase-5) | 1 | 2.77e7 | 2.94e7 | – | 1.22e7 | 1.40e7 | inactive
CG3337 | 1 | 2.67e7 | 2.16e7 | – | 1.44e7 | 1.14e7 | inactive
sesB (stress-sensitive B) | 1 | 3.71e7 | 3.55e7 | – | 1.82e7 | 1.96e7 | inactive
CG17612 | 1 | 4.38e7 | – | – | 2.56e7 | – | inactive
CG8993 | 1 | 3.61e7 | 3.80e7 | – | 1.76e7 | 1.76e7 | inactive
SkpA (SKP1-related A) | 1 | 4.19e7 | 4.94e7 | – | 2.76e7 | 2.81e7 | inactive
CG13594 | 1 | 4.72e7 | 4.23e7 | – | 2.33e7 | 2.01e7 | inactive
CG13594 | 2 | 3.01e7 | 4.59e7 | – | 1.71e7 | 1.94e7 | inactive
CG15548 | 1 | 4.51e7 | 5.99e7 | – | 2.37e7 | 2.47e7 | inactive
Frl (Formin-like) | 1 | 3.17e7 | 2.94e7 | – | 1.51e7 | 1.34e7 | inactive
Frl (Formin-like) | 2 | 3.35e7 | 3.62e7 | – | 1.51e7 | 1.57e7 | inactive
Frl (Formin-like) | 3 | 3.69e7 | 4.24e7 | – | 1.61e7 | 2.20e7 | inactive
CG5815 | 1 | 3.78e7 | 5.60e7 | – | 1.99e7 | 2.43e7 | inactive
tok (tolkin) | 1 | 4.18e7 | 3.92e7 | – | 1.83e7 | 1.58e7 | inactive
Atac3 (Ada2a-containing complex component 3) | 1 | 4.01e7 | 4.62e7 | – | 2.07e7 | 2.05e7 | inactive
Fdx2 (Ferredoxin 2) | 1 | 4.36e7 | 3.52e7 | – | 2.48e7 | 1.66e7 | inactive
side-VII (sidestep VII) | 1 | 3.23e7 | 4.25e7 | – | 1.50e7 | 1.99e7 | inactive
CG7512 | 1 | 2.82e7 | 3.77e7 | – | 1.60e7 | 1.57e7 | inactive
ninaA (neither inactivation nor afterpotential A) | 1 | 4.16e7 | – | – | 2.56e7 | – | inactive
Grip163 | 1 | 3.13e7 | 4.22e7 | – | 1.59e7 | 1.95e7 | inactive
Tbh (Tyramine beta hydroxylase) | 1 | 2.76e7 | 4.81e7 | – | 1.38e7 | 2.15e7 | inactive
REPTOR (Repressed by TOR) | 1 | 5.07e7 | 4.13e7 | – | 2.68e7 | 2.01e7 | inactive
CG13962 | 1 | 3.06e7 | 4.51e7 | – | 1.57e7 | 1.85e7 | inactive
CG34030 | 1 | 4.18e7 | 7.43e7 | – | 2.16e7 | 3.07e7 | inactive
egg (eggless) | 1 | 3.84e7 | – | – | 1.90e7 | – | inactive
egg (eggless) | 2 | 4.12e7 | 3.22e7 | – | 2.04e7 | 1.25e7 | inactive
CG32718 | 1 | 2.85e7 | 3.88e7 | – | 1.48e7 | 1.70e7 | inactive
tld (tolloid) | 1 | 3.08e7 | 3.91e7 | – | 1.73e7 | 1.45e7 | inactive
Srp54 (Splicing regulatory protein 54) | 1 | 2.31e7 | – | – | 1.51e7 | – | inactive
Pdk1 (Phosphoinositide-dependent kinase 1) | 1 | 2.51e7 | 4.14e7 | – | 1.39e7 | 1.83e7 | inactive
CG4286 | 1 | 3.13e7 | 4.16e7 | – | 1.81e7 | 1.83e7 | inactive
